# Measurements from ChEMBL document CHEMBL4303122, “Identification of potential treatments for COVID-19 through artificial intelligence-enabled phenomic analysis of human cells infected with SARS-CoV-2” (2020).
# Where a name gives a salt, the structure may show the parent alone. In all, about 1,600 compounds were measured (“Hit score”: median about 0.13, highest 2% from about 0.46 on). The list shows a part of the results.
# Tested on: SARS-CoV-2
# Assay: Antiviral activity against SARS-CoV-2 (USA-WA1/2020 strain) measured by imaging in HRCE cells at MOI 0.4 after 96 hrs (reported as hit score from 0-1 for on-disease vs off-disease activity: scores >0.6 considered hits)
# Assay type: functional, Homo sapiens
row,Compound,Hit score
1,CC(C)(S)C(=O)N[C@@H](CS)C(=O)O [BUCILLAMINE],0.1477
2,OC[C@@H](O)C(O)[C@@H](O)CO (some centres undefined),0.1332
3,Cc1cnc(Nc2ccc(OCCN3CCCC3)cc2)nc1Nc1cccc(S(=O)(=O)NC(C)(C)C)c1 [FEDRATINIB],-0.003207
4,Cn1ncnc1[C@H]1c2n[nH]c(=O)c3cc(F)cc(c23)N[C@@H]1c1ccc(F)cc1 [TALAZOPARIB],0.1593
5,CNCCc1ccccn1 [BETAHISTINE],0.1802
6,Cc1nc2c([nH]1)-c1ccccc1N(C(=O)c1ccc(NC(=O)c3ccccc3-c3ccccc3)cc1)CC2 [CONIVAPTAN],0.2311
7,CC=CC(=O)N(CC)c1ccccc1C,0.08702
8,CN(C)C(=N)NC(=N)N [METFORMIN],-0.02581
9,C=C1/C(=C\C=C2/CCC[C@]3(C)[C@@H]([C@H](C)/C=C/[C@H](C)C(C)C)CC[C@@H]23)C[C@@H](O)C[C@@H]1O [DOXERCALCIFEROL],0.4621
10,Nc1nc2c(ncn2COC(CO)CO)c(=O)[nH]1 [GANCICLOVIR],0.1061
11,CC(NC(C)(C)C)C(=O)c1cccc(Cl)c1 (centres undefined) [BUPROPION],0.1506
12,Cc1cccc(C)c1OCC(=O)N[C@@H](Cc1ccccc1)[C@@H](O)C[C@H](Cc1ccccc1)NC(=O)[C@H](C(C)C)N1CCCNC1=O [LOPINAVIR],0.05208
13,O=C1Nc2ccc(Cl)cc2[C@@](C#CC2CC2)(C(F)(F)F)O1 [EFAVIRENZ],0.3102
14,COc1cccc(OC)c1C(=O)N[C@@H]1C(=O)N2[C@@H]1SC(C)(C)[C@@H]2C(=O)O [METHICILLIN],0.05096
15,Nc1ccc(C(=O)O)c(O)c1 [AMINOSALICYLIC ACID],0.1701
16,OCCN1CCN(CC/C=C2/c3ccccc3Sc3ccc(Cl)cc32)CC1 [ZUCLOPENTHIXOL],0.1545
17,CN1CCC(=C2c3ccccc3CCn3c(C=O)cnc32)CC1 [ALCAFTADINE],0.08654
18,C[N+]1(CC2CC2)CC[C@]23c4c5ccc(O)c4O[C@H]2C(=O)CC[C@@]3(O)[C@H]1C5 (some centres undefined) [METHYLNALTREXONE],0.1187
19,Nc1ccn(C[C@@H](CO)OCP(=O)(O)O)c(=O)n1.O.O [CIDOFOVIR],0.01896
20,Nc1ccc(/N=N/c2ccccc2)c(N)n1 [PHENAZOPYRIDINE],0.2186
21,CCC1(C)CC(=O)NC1=O (centres undefined) [ETHOSUXIMIDE],0.1367
22,C[C@H](Nc1ncnc2nc[nH]c12)c1cc2cccc(Cl)c2c(=O)n1-c1ccccc1 [DUVELISIB],0.6035
23,CC(NCCc1ccc(O)cc1)C(O)c1ccc(O)cc1 (centres undefined) [RITODRINE],-0.06425

row,Compound,Hit score
1,C[N+](C)(CCOc1ccccc1)Cc1ccccc1.O=C([O-])c1cc2ccccc2cc1O [BEPHENIUM HYDROXYNAPHTHOATE],0.2695
2,C=C[C@H]1CN2CC[C@H]1C[C@@H]2[C@@H](O)c1ccnc2ccc(OC)cc12 [QUINIDINE],0.3909
3,O=c1c2ccccc2[se]n1-c1ccccc1 [EBSELEN],0.2275
4,O=S(=O)(c1cccc2cnccc12)N1CCCNCC1 [FASUDIL],0.1213
5,O=C(c1ccc(F)c(F)c1Nc1ccc(I)cc1F)N1CC(O)([C@@H]2CCCCN2)C1 [COBIMETINIB],-0.006789
6,CO[C@H]1C[C@@H]2CC[C@@H](C)[C@@](O)(O2)C(=O)C(=O)N2CCCC[C@H]2C(=O)O[C@H]([C@H](C)C[C@@H]2CC[C@@H](OCCO)[C@H](OC)C2)CC(=O)[C@H](C)/C=C(\C)[C@@H](O)[C@@H](OC)C(=O)[C@H](C)C[C@H](C)/C=C/C=C/C=C/1C [EVEROLIMUS],0.4984
7,CN[C@@H](C)[C@H](O)c1ccccc1.Cl [EPHEDRINE HYDROCHLORIDE],0.3718
8,CCCc1nn(C)c2c(=O)[nH]c(-c3cc(S(=O)(=O)N4CCN(C)CC4)ccc3OCC)nc12,0.1151
9,CCCCOC(=O)c1cc2c(cn1)[nH]c1ccccc12,0.2723
10,COC(=O)C[C@](O)(CCCC(C)(C)O)C(=O)O[C@@H]1C(OC)=C[C@]23CCCN2CCc2cc4c(cc2[C@H]13)OCO4 [OMACETAXINE MEPESUCCINATE],0.04224
11,CC(C)OC(=O)[C@H](C)N[P@@](=O)(OC[C@H]1O[C@@H](n2ccc(=O)[nH]c2=O)[C@](C)(F)[C@@H]1O)Oc1ccccc1,0.2594
12,CN(C)CCc1c[nH]c2ccc(CS(=O)(=O)N3CCCC3)cc12 [ALMOTRIPTAN],0.03586
13,CCCCc1ncc(/C=C(\Cc2cccs2)C(=O)O)n1Cc1ccc(C(=O)O)cc1 [EPROSARTAN],0.09355
14,N[C@@H](Cc1ccc(O)c(O)c1)C(=O)O [LEVODOPA],0.1611
15,CN1CCN2c3ccccc3Cc3ccccc3C2C1 (centres undefined) [MIANSERIN],0.2217
16,CCCCCCCCOc1ccccc1C(=O)Nc1ccc(C(=O)OCC[N+](C)(CC)CC)cc1 [OTILONIUM],0.1331
17,O=C(O)CCC(=O)c1ccc(-c2ccccc2)cc1 [FENBUFEN],0.3282
18,CC(OC(=O)NCC1(CC(=O)O)CCCCC1)OC(=O)C(C)C (centres undefined) [GABAPENTIN ENACARBIL],0.2724
19,O=C1c2c(O)ccc(O)c2C(=O)c2c(NCCNCCO)ccc(NCCNCCO)c21 [MITOXANTRONE],0.05299
20,CCOC(=O)C1=C(C)NC(C)=C(C(=O)OC)C1c1cccc(Cl)c1Cl (centres undefined) [FELODIPINE],0.04552
21,CC(=O)O[C@H]1C[C@@H]2CC[C@@H]3[C@H](CC[C@@]4(C)[C@H]3C[C@H]([N+]3(C)CCCCC3)[C@@H]4OC(C)=O)[C@@]2(C)C[C@@H]1[N+]1(C)CCCCC1 [PANCURONIUM],0.09762
22,COC(=O)/C=C/C(=O)OC [DIMETHYL FUMARATE],0.2569
23,CC(C)(C)NC[C@H](O)COc1cccc2c1CCCC2=O [LEVOBUNOLOL],0.1851

row,Compound,Hit score
1,C[N+](C)(C)CCOC(N)=O [CARBAMOYLCHOLINE],0.06455
2,O=C(NC(Cc1cc(=O)[nH]c2ccccc12)C(=O)O)c1ccc(Cl)cc1 (centres undefined) [REBAMIPIDE],0.1332
3,C=CCN1CC[C@]23CCCC[C@H]2[C@H]1Cc1ccc(O)cc13 [LEVALLORPHAN],0.1904
4,OCC(CO)N[C@H]1C[C@](O)(CO)[C@@H](O)[C@H](O)[C@H]1O [VOGLIBOSE],0.1287
5,CCOC(CN1CCN(CC(C)C(=O)c2ccccc2)CC1)c1ccccc1 (centres undefined) [EPRAZINONE],0.2949
6,OC(CCN1CCCCC1)(c1ccccc1)c1ccccc1 [PRIDINOL],0.1349
7,Cc1c(Cl)c(C)[n+]([O-])c(Cl)c1-c1noc(-c2cc(O)c(O)c([N+](=O)[O-])c2)n1 [OPICAPONE],-0.07412
8,CCCCC(=O)N(Cc1ccc(-c2ccccc2-c2nnn[nH]2)cc1)[C@H](C(=O)O)C(C)C,0.04941
9,CCN(CC)CCNC(=O)c1cc(Br)c(N)cc1OC [BROMOPRIDE],0.05478
10,Cc1ccc(Nc2nccc(N(C)c3ccc4c(C)n(C)nc4c3)n2)cc1S(N)(=O)=O [PAZOPANIB],0.1082
11,C[C@@H](O)[C@H]1C(=O)N2C(C(=O)OCOC(=O)C(C)(C)C)=C(SC3CN(C4=NCCS4)C3)[C@H](C)[C@H]12 [TEBIPENEM PIVOXIL],0.09408
12,CSCC[C@H](NC(=O)[C@H](Cc1c[nH]c2ccccc12)NC(=O)CCNC(=O)OC(C)(C)C)C(=O)N[C@@H](CC(=O)O)C(=O)N[C@@H](Cc1ccccc1)C(N)=O [PENTAGASTRIN],0.1737
13,Cc1c(C(=O)Nc2ccc(N3C[C@@H](C)O[C@@H](C)C3)nc2)cccc1-c1ccc(OC(F)(F)F)cc1 [SONIDEGIB],0.05683
14,Nc1nc(/C(=C/CC(=O)O)C(=O)N[C@@H]2C(=O)N3C(C(=O)O)=CCS[C@H]23)cs1 [CEFTIBUTEN],0.05059
15,CCOc1ccc(Cc2nccc3cc(OCC)c(OCC)cc23)cc1OCC [ETHAVERINE],0.02741
16,CN(C(=O)/C=C/c1ccoc1)[C@@H]1CC[C@@]2(O)[C@H]3Cc4ccc(O)c5c4[C@@]2(CCN3CC2CC2)[C@H]1O5 [NALFURAFINE],0.1349
17,O=C(Nc1ccc([N+](=O)[O-])cc1Cl)c1cc(Cl)ccc1O [NICLOSAMIDE],0.443
18,CC(C)c1nc(CN(C)C(=O)N[C@@H](CCN2CCOCC2)C(=O)N[C@H](CC[C@H](Cc2ccccc2)NC(=O)OCc2cncs2)Cc2ccccc2)cs1 [COBICISTAT],0.1186
19,C#C[C@]1(O)CC[C@H]2[C@@H]3CCC4=CCCC[C@@H]4[C@H]3C(=C)C[C@@]21CC [DESOGESTREL],-0.03558
20,CC12CC3CC(C)(C1)CC(N)(C3)C2 [MEMANTINE],0.1136
21,CN1C(C(=O)Nc2ccccn2)=C(O)c2sc(Cl)cc2S1(=O)=O [LORNOXICAM],0.1815
22,Nc1ccn([C@H]2CO[C@@H](CO)S2)c(=O)n1 [APRICITABINE],0.02649
23,O=c1cc[nH]c(=O)[nH]1 [URACIL],0.2028

# Another view of part of the listing above.
row	Compound	Hit score
9	CCN(CC)CCNC(=O)c1cc(Br)c(N)cc1OC [BROMOPRIDE]	0.05478
10	Cc1ccc(Nc2nccc(N(C)c3ccc4c(C)n(C)nc4c3)n2)cc1S(N)(=O)=O [PAZOPANIB]	0.1082
11	C[C@@H](O)[C@H]1C(=O)N2C(C(=O)OCOC(=O)C(C)(C)C)=C(SC3CN(C4=NCCS4)C3)[C@H](C)[C@H]12 [TEBIPENEM PIVOXIL]	0.09408
